# Measured values from patent publication US9221763B2, “Process for preparing biphenyl imidazole compounds” (Theravance Biopharma R&D IP, LLC, priority 2009, dated 2015).
# Some results were stated once for a whole list of compounds, not compound by compound.
# Test: Thermogravimetric analysis (TGA)
# Assay type: physicochemical
# Settings: crystalline solid; from room temperature to 150.0° C.
compound,measurement,value
"CCOc1nc(CC)c(CNC(=O)[C@H](CC(C)C)SC(C)=O)n1Cc1ccc(-c2ccccc2C(=O)O)cc1F [Example 2, 4′-{5-[((S)-2-acetylsulfanyl-4-methylpentanoylamino)methyl]-2-ethoxy-4-ethylimidazol-1-ylmethyl}-3′-fluorobiphenyl-2-carboxylic acid]","loss of weight (residual moisture or solvent), TGA trace",< 0.5%
